Here are results for one substance from paper PMC3681753.

Amino acid sequences for entries named in this document (tags omitted). A change or cut given only in a name is not applied to a line headed by its entry.
UniProt Q14653: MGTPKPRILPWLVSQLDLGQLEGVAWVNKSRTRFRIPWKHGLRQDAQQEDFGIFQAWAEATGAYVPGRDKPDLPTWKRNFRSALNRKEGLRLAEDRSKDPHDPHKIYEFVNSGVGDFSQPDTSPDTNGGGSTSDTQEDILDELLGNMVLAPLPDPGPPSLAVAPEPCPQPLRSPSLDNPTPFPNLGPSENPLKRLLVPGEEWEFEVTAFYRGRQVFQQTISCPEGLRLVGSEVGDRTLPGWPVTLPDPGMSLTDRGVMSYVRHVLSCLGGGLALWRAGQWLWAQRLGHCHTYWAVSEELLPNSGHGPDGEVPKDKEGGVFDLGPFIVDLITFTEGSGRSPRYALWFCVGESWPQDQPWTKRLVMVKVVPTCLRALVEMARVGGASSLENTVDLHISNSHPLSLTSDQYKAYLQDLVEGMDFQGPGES
UniProt P35222: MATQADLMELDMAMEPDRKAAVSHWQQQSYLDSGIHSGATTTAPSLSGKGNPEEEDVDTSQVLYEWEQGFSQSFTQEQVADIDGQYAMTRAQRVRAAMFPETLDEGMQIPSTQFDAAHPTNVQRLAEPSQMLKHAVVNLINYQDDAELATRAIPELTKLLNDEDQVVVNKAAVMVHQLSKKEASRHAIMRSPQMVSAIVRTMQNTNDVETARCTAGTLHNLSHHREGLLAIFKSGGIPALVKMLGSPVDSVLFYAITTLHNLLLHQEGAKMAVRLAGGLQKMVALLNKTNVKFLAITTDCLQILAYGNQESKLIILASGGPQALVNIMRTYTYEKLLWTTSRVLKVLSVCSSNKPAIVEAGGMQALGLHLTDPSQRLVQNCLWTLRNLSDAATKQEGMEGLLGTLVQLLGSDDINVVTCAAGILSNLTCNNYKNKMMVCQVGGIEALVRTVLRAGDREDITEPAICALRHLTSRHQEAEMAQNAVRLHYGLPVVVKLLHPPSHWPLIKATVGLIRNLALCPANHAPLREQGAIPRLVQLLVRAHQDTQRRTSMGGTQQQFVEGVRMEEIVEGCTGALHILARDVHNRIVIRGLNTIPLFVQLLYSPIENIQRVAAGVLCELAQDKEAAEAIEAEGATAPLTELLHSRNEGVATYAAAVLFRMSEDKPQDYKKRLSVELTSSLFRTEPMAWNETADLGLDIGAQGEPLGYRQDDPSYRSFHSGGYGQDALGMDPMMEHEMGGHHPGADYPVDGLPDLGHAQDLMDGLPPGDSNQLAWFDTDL

No constants are given. Whether binding was seen depends on the method and setting. In cells and extracts the contact can be indirect. Binding can be weak; no strength is given.

The target in this assay is FLAG-IRF3(5D), constitutively active phosphomimetic mutant of IRF3 (human) (UniProt Q14653). Put plainly: co-IP; HEK 293T co-transfected 48 h with CTNNB1 and FLAG-tagged bait; extracts made after 16 h of SeV infection; immunoprecipitation against FLAG; blot with anti-FLAG and anti-CTNNB1.

For “exogenous CTNNB1 (β-catenin), untagged (from UniProt P35222 1-781)”, the binding result is “binds”.
